Source: PubChem BioAssay AID2685 (National Center for Advancing Translational Sciences (NCATS), 2010)
The list shows a part of the results. The main result of the screen is listed elsewhere. These columns were measured beside it and carry no call. Most of these compounds were active or inconclusive in the main read-out, so they are no random draw. Words in brackets tell the shape of the fitted curve; partial curves, single points and poor fits give uncertain potencies.

Assay: qHTS Assay for Lipid Storage Modulators in Drosophila S3 Cells;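 for cell number change: cells counted by Cell Tracker Red CMTPX staining in the red channel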
Conditions: BODIPY lipid droplet fluorescence, 18-24 h; for cell number change: measured here: cell count max response, cells fed with added oleic acid
Summary of the method: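 Drosophila S3 cells loaded with oleic acid (400 uM, as added) and compounds at several concentrations; lipid droplets imaged by 488-nm laser-scanning cytometry, 500–530 nm intensity and object ratio to cell channel. Percent activity normalized to 20 uM Triacsin C.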

[1] = measured here: lipid fluorescence (Fed channel) AC50, cells fed with added oleic acid
[2] = measured here: cell number channel AC50, cells fed with added oleic acid

In the case of CN(C)S(=O)(=O)c1cc(NC(=O)Cn2ccsc2=N)ccc1Cl, the cell number change is reported as 2.96% and the AC50 [1] is reported as 0.116 µM [falling, full curve, poor fit].
With CN(C)CC(C)(C)CNC(C(=O)Nc1ccc(Cl)cc1C(F)(F)F)c1ccccc1 (configuration not stated) the AC50 [1] was 2.06 µM [falling, partial curve].
With CCOC(=O)C1CCCN(C(=O)CN2C(=O)/C(=C/c3ccc(OC)cc3)Oc3ccccc32)C1 (configuration not stated) the cell number change was 22.5% and the AC50 [1] was 1.03 µM [falling, single point].
For CN(CCOc1ccccc1)CC(=O)Nc1cccc(C#N)c1, the cell number change was 23.9% and the AC50 [1] was 0.58 µM [rising, single point].
For CC12CCC(=O)C=C1CCC1C2C(=O)CC2(C)C1CC[C@]2(O)C(=O)CO (some centres not stated), the AC50 [2] was 0.58 µM [rising, single point].
In the case of CC(=O)C1=C(O)C(=O)N(C)C1c1ccccc1[N+](=O)[O-] (configuration not stated), the cell number change is reported as -4.44% and the AC50 [1] is reported as 7.31 µM [falling, full curve, poor fit].
In the case of O=C(COC(=O)c1cc(-c2ccncc2)nc2ccccc12)Nc1ccc2c(c1)OCO2, the cell number change is reported as 14.6%, the AC50 [2] is reported as 0.146 µM [falling, full curve, poor fit] and the AC50 [1] is reported as 20.6 µM [rising, single point].
In the case of COc1ccc(CCNC(=O)C/C(C)=N/NC(=O)COc2ccc(C)cc2Br)cc1OC, the cell number change is reported as 21.8% and the AC50 [1] is reported as 6.51 µM [falling, partial curve, poor fit].
In the case of COC(=O)c1ccc(NC(=S)NC(=O)c2cc(-c3ccccc3)nc3ccccc23)cc1, the cell number change is reported as 34% and the AC50 [2] is reported as 0.231 µM [rising, full curve, poor fit].
With O=C(c1ccc(Cl)cc1)N1CCC(O)(CSc2ccc(Cl)cc2Cl)CC1 the cell number change was -22.8% and the AC50 [1] was 29.1 µM [falling, single point].
For COC(=O)c1ccc2c(c1)C(=O)/C(=C/c1ccc(O)cc1)O2, the cell number change was 2.25% and the AC50 [1] was 14.6 µM [rising, partial curve, poor fit].
In the case of COc1ccccc1-c1ocnc1C(=O)N1CCN(S(=O)(=O)c2ccc(NC(C)=O)cc2)CC1, the cell number change is reported as 14.2% and the AC50 [1] is reported as 2.91 µM [falling, partial curve].
In the case of Cn1ccnc1SCC(=O)Nc1ccc2c(c1)OCO2, the cell number change is reported as -57.7%.
For CCOC(=O)CSc1nnc(CNC(=O)c2ccc(S(=O)(=O)N3CCCC3)cc2)n1C, the cell number change was -74.9%, the AC50 [2] was 29.1 µM [falling, single point] and the AC50 [1] was 29.1 µM [falling, partial curve].
In the case of COc1ccccc1NC(=O)c1ccccc1-c1nc(-c2ccccc2OC)no1, the AC50 [1] is reported as 0.58 µM [rising, single point].
With Cc1ccccc1C(=O)NC=C1C(=O)OC(C)(C)OC1=O the cell number change was -21% and the AC50 [2] was 6.51 µM [rising, single point].
With Cc1ccc(SCC(=O)c2sc(-c3ccccc3)nc2C)cc1 the cell number change was -3.9% and the AC50 [1] was 0.58 µM [rising, single point].
In the case of C/C=C(\C)CN1CCN(c2ccccc2)CC1, the cell number change is reported as 3.11% and the AC50 [1] is reported as 4.11 µM [falling, single point].
In the case of O=C(Nc1ccc(Cl)c(Cl)c1)N(CCCN1CCOCC1)Cc1cccs1, the cell number change is reported as 20.5% and the AC50 [1] is reported as 29.1 µM [rising, single point].
COc1ccc(C(=O)c2sc(Nc3ccccc3)nc2N)cc1OC gave a cell number change of -26.2%.
With C=CCC1(CC=C)CCCN1C(=O)c1cc(COc2ccc(-n3cncn3)cc2)on1 the cell number change was -32.8%, the AC50 [2] was 29.1 µM [falling, single point] and the AC50 [1] was 29.1 µM [falling, single point].
In the case of Cc1ccc(S(=O)(=O)Nc2ccc(C(=O)N3CCOCC3)cc2)cc1, the cell number change is reported as 14.1% and the AC50 [1] is reported as 29.1 µM [rising, single point].
With CNS(=O)(=O)c1ccc(C)cc1 the cell number change was -8.05% and the AC50 [2] was 6.51 µM [falling, single point].
With O=C(NCc1cccs1)c1cc2c(s1)-c1ccccc1OC2 the cell number change was 0.142%.
With O=C1/C(=C/c2cccs2)CCC/C1=C\c1cccs1 the cell number change was -19.5% and the AC50 [1] was 16.4 µM [falling, single point].
In the case of C=CCN1C(=O)C(Cc2ccc(SC(F)F)cc2)SC1=Nc1ccc(C(=O)O)cc1 (configuration not stated), the cell number change is reported as -8.25% and the AC50 [1] is reported as 2.91 µM [rising, single point].
With COC(=O)c1ccc(N2CCOCC2)c(NC(=O)c2ccc(Br)o2)c1 the cell number change was -10.3% and the AC50 [1] was 1.64 µM [falling, partial curve, poor fit].
In the case of c1cncc(CNc2ccc3c(c2)OCO3)c1, the AC50 [2] is reported as 0.366 µM [rising, partial curve, poor fit] and the AC50 [1] is reported as 0.58 µM [rising, full curve].
For O=C(CC1CCCC1)Nc1cc(S(=O)(=O)N2CCOCC2)ccc1O, the cell number change was -3.82% and the AC50 [1] was 0.164 µM [falling, full curve, poor fit].
In the case of Cc1nn(-c2ccc(N3CCCCC3)nn2)c(C)c1CCC(=O)Nc1ccccc1F, the cell number change is reported as -7.37% and the AC50 [1] is reported as 23.1 µM [falling, single point].
Brc1ccc(CSc2nnc3ccccn23)cc1 gave a cell number change of 11.7%.
Work on COc1ccccc1CN(CC(=O)NCc1ccco1)C(=O)CNS(=O)(=O)c1ccccc1 yielded a cell number change of 18.2%.
For Cc1ccc(C)c(NC(=O)CSc2nc(N)c(NC(=O)c3cccs3)c(=O)[nH]2)c1, the cell number change was 14.8% and the AC50 [1] was 0.00651 µM [falling, full curve, poor fit].
For NS(=O)(=O)c1cccc(NC(=O)COC(=O)c2cc(-c3ccc(Cl)cc3)nc3ccccc23)c1, the cell number change was -34.1%, the AC50 [2] was 18.4 µM [falling, single point] and the AC50 [1] was 18.4 µM [falling, single point].
With O=c1[nH]c2ccc(Cl)cc2c(=O)n1Cc1ccco1 the cell number change was -24.8% and the AC50 [1] was 29.1 µM [rising, single point].
In the case of CCC1=NN2C(=N)/C(=C\c3ccc(SCc4ccco4)o3)C(=O)N=C2S1, the cell number change is reported as 61.6%, the AC50 [2] is reported as 20.6 µM [rising, single point] and the AC50 [1] is reported as 0.164 µM [falling, full curve, poor fit].
With O=C(NN1C(=O)NC2(CCCCC2)C1=O)c1ccc(-c2ccc(Cl)cc2)o1 the cell number change was -10.8% and the AC50 [1] was 0.231 µM [falling, full curve, poor fit].
In the case of CN(C(=O)c1ccc(Cl)c(S(=O)(=O)N2CCOCC2)c1)c1ccccc1C(=O)O, the AC50 [1] is reported as 0.461 µM [falling, full curve].
